Values of other authors as cited in patent publication US10662475B2, “Compositions and methods for the treatment and prevention of antipsychotic medication-induced weight gain” (Centre for Addiction and Mental Health, priority 2014, dated 2020).
At least one compound was matched to its structure with a doubt left.

Columns and labels:
[1] = test system: orexin neurons; conditions: compared with antipsychotics with relatively less AIWG risk (e.g. risperidone); cited from earlier work
[2] = test system: GLP-1; conditions: rat models; effects seem to occur after a longer treatment period; cited from earlier work
[3] = test system: TSPO; conditions: hippocampus and hypothalamus as well as steroidogenic tissues in rats; cited from earlier work

## CN1CCN(C2=Nc3cc(Cl)ccc3Nc3ccccc32)CC1 [clozapine]
[1]
  activation of orexin neurons: activated orexin neurons significantly more
[2]
  GLP-1 levels: decrease GLP-1 levels
[3]
  TSPO binding capacity: increase TSPO binding capacity
